For the test, the target named is Flag-HA-tagged human Dicer WT (human) (UniProt Q9UPY3). Description: co-IP.

Sequences of proteins named here, by UniProt entry; tags and fusion partners are left off.
UniProt Q9UPY3: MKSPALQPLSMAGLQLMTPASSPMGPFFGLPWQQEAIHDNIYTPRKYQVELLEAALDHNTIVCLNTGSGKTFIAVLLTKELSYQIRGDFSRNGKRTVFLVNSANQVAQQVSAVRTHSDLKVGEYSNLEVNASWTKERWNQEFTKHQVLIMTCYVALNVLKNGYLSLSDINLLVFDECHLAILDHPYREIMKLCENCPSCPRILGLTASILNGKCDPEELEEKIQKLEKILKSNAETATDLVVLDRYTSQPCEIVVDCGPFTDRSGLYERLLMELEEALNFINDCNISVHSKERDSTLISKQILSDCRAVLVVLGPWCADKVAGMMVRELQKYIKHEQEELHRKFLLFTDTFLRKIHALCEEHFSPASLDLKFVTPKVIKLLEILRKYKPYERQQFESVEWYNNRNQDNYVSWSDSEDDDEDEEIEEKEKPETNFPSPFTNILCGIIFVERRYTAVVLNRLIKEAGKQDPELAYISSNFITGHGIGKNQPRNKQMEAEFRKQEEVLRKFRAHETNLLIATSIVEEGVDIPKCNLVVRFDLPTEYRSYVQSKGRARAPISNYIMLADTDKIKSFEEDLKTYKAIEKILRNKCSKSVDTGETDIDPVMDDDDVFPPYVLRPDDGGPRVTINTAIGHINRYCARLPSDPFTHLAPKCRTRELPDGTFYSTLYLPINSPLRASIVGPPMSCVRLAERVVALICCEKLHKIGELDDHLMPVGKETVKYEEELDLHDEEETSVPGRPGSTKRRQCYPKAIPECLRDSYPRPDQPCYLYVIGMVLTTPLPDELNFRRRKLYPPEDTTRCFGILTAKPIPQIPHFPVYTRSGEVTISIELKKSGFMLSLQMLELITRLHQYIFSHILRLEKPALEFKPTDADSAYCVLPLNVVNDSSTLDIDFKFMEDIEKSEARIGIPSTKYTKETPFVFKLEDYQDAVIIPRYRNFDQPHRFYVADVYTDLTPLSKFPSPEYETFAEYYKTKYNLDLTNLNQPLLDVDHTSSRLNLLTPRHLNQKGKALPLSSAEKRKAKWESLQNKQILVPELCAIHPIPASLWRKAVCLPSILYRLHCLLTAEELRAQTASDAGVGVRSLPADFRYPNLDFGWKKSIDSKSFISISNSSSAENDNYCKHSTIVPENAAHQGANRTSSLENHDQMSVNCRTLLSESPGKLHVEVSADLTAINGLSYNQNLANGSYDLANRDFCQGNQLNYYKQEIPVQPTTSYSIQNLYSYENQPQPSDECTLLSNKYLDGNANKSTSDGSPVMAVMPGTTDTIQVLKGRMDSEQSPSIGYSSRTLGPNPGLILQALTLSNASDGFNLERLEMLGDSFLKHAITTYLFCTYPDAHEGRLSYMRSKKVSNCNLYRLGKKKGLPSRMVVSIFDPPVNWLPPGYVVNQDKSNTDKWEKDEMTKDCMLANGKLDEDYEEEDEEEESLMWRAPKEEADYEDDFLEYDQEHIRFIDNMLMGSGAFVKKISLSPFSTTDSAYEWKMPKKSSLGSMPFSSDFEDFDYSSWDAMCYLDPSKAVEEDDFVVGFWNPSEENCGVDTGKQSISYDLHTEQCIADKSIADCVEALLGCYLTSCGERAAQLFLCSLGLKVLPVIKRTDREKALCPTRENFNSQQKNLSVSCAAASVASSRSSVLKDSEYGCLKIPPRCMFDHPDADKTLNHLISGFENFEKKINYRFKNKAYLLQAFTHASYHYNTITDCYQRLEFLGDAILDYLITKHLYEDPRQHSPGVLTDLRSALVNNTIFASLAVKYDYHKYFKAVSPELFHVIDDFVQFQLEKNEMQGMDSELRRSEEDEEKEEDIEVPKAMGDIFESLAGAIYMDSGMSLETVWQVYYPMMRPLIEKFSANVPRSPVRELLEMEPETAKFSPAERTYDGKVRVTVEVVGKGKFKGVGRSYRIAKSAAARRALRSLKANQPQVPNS
UniProt P19525: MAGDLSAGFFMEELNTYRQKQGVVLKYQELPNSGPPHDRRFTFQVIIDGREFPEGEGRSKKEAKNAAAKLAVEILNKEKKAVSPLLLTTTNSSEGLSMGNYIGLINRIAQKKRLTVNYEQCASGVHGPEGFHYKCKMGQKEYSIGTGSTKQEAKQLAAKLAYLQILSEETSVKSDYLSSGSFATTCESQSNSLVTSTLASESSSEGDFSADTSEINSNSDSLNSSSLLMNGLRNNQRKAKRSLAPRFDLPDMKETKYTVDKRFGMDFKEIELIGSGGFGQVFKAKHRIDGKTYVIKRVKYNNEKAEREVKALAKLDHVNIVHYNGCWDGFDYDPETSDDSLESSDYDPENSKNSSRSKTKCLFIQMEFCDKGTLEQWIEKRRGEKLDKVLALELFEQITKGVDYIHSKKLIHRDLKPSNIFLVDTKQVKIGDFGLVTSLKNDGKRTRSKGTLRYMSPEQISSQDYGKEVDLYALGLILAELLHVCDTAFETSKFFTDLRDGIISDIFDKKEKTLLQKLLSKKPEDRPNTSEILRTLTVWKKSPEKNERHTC

These are yes or no findings as the source states them, for the method shown. Binding seen in cells or lysates may run through a third protein. Some binding calls cover weakened binding; strength is not graded here.

With “dsRNA-activated protein kinase PKR (from UniProt P19525 1-551) (enzyme)”, the binding result was “binds”.

B1: PACT (protein, UniProt O75569 1-313)
chain: MSQSRHRAEAPPLEREDSGTFSLGKMITAKPGKTPIQVLHEYGMKTKNIPVYECERSDVQIHVPTFTFRVTVGDITCTGEGTSKKLAKHRAAEAAINILKANASICFAVPDPLMPDPSKQPKNQLNPIGSLQELAIHHGWRLPEYTLSQEGGPAHKREYTTICRLESFMETGKGASKKQAKRNAAEKFLAKFSNISPENHISLTNVVGHSLGCTWHSLRNSPGEKINLLKRSLLSIPNTDYIQLLSEIAKEQGFNITYLDIDELSANGQYQCLAELSTSPITVCHGSGISCGNAQSDAAHNALQYLKIIAERK
As to B1, the binding result is listed as “binds”.

For the origin of these results see paper doi:10.1101/2023.08.23.554407.
